Test results: patent US20240238386A1, “METHODS FOR INCREASING RED BLOOD CELL HALF-LIFE AND ASSOCIATED TREATMENT OF ANEMIA” (Marshall University Research Corporation, priority 2021, published 2024)
Several values for one entry are separate records, joined by “and”; a condition that tells them apart may be missing. Equal entries are not always repeated. Entries after “also recorded” stand apart in the source; their conditions may differ.

Key:
[1] = Plasma BUN (urea assay kit), renal function; assay type: in vivo, C57BL6 mice; settings: PNx mice
Source text: Chemicals, reagents, and antibodies: All chemicals, except otherwise mentioned, were obtained from Sigma-Aldrich (St. Louis, MO). EZ-Link Sulfo-NHS Biotin (water-soluble and cell membrane-impermeable, Cat #A39256), fluorescent DNA dye 7-Aminoactinomycin-D (7-AAD, Cat #A1310), Thiazole Orange (Cat #50-196-4656), protease/phosphatase inhibitor cocktail (Cat #78442), and Pierce Reversible Protein Stain Kit—for PVDF membrane (Cat #24585) were from ThermoFisher Scientific (Waltham, MA). Antibody against EPO (clone B-4, Cat #sc-5290), RIPA lysis buffer system (Cat #sc-24948), and HRP-conjugated secondary antibodies were from Santa Cruz (Santa Cruz, CA). Streptavidin-PE (Cat #562284), Annexin V binding buffer (10×, Cat #556454), Annexin V-APC (Cat #550475), and microtainer (Cat #365965) were from BD Biosciences (San Jose, CA). DNPH (Cat #D199303) and anti-DNP antibody (Cat #D9656) were from Sigma-Aldrich. Urea assay kit (Cat #ab8362) for plasma BUN assay was from Abcam (Boston, MA), and Iron/TIBC Reagents (Cat #1750460) was from Pointe Scientific (Canton, MI). […]
(§1) Plasma BUN and creatinine levels were measured to assess the effect of PNx (and administration of the pNaKtide, NaKtide, and sc-pNaKtide) on renal function.

[2] = Plasma creatinine (mouse creatinine assay kit), renal function; assay type: in vivo, C57BL6 mice; settings: PNx mice; compared to the PNx group; data not shown
Source text: (§2) Animal study: All animal care and experiments were approved by the Marshall University Institutional Animal Care and Use Committee (IACUC) in accordance with the National Institutes of Health (NIH) Guide for the Care and Use of Laboratory Animals. The animal facility is AAALAC-accredited and maintained at an SPF status. C57BL6 mice (10-12 weeks old) were purchased from the Jackson Laboratory (Bar Harbor, ME) and housed in a pathogen-free animal facility under a 12-hour light/dark cycle. Standard rodent chow diet (Rodent Diet 5001, LabDiet, St Louis, MO) and water were supplied ad libitum. Mice were randomly divided into six experimental groups: (1) Sham; (2) Sham+pNaKtide; (3) ⅚th partial nephrectomy (PNx); (4) PNx+pNaKtide; (5) PNx+NaKtide; and (6) PNx+scramble pNaKtide (sc-pNaKtide).
(§3) The ⅚^th partial nephrectomy with pole ligation (PNx) and sham surgery: PNx and sham surgery methods were performed as described previously. Briefly, the PNx surgery is divided into two separate procedures. The first surgery involves ligation of the left kidney of the upper and lower poles. Seven days later, the second surgery involves the removal of the right kidney. If the mice were in overall healthy condition after 3 days, the study was commenced. […]
as §1

[3] = system: reticulocytes; test: Reticulocyte count by flow cytometry (Thiazole Orange); assay type: in vivo, C57BL6 mice; settings: end of experiment (Day 28)
Source text: as §2, with “Mice were randomly divided into six experimental groups: (1) Sham; (2) Sham+pNaKtide; (3) ⅚th partial nephrectomy (PNx); (4) PNx+pNaKtide; (5) PNx+NaKtide; and (6) PNx+scramble pNaKtide (sc-pNaKtide).” left out
Assessment of reticulocyte count by flow cytometry: To measure the reticulocyte count, 10 μl of whole blood sample was gently mixed with 200 μl of pre-chilled PBS/ACD-A (1:4, vol/vol) solution, and then incubated with 10 μl of Thiazole Orange at room temperature in the dark for 30 minutes. […] Pellets were then suspended in 200 μl of PBS/ACD-A buffer and analyzed with the flow cytometer. […] The cells of interest were then evaluated for fluorescence characteristics. Gated populations were set between the negative and positive populations in the fluorescence histogram for Thiazole Orange, thus distinguishing between reticulocytes and mature erythrocytes. The reticulocytes were expressed as percentages of the total erythrocytes. […]

[4] = system: protein carbonylation; test: Protein carbonylation of plasma samples (immunoblotting); assay type: in vivo, C57BL6 mice; settings: PNx mice; plasma at the experiment's conclusion
Source text: as §2
(§4) The ⅚^th partial nephrectomy with pole ligation (PNx) and sham surgery: PNx and sham surgery methods were performed as described previously. […]
(§5) Immunoblotting analyses of protein carbonylation and EPO in plasma samples: Plasma (50 μL) samples were lysed with 250 μL of RIPA lysis buffer (with protease and phosphatase inhibitor cocktail) and cleared by centrifugation. The protein concentration was determined by BCA protein assay kit (Bio-Rad). […] The signals from immunoblotting and PVDF membrane protein stain were obtained with FluorChem M and calculated with AlphaView software (ProteinSimple).

[5] = system: ⅚th partial nephrectomy (PNx); settings: cited from earlier work
[6] = system: EPO; test: Immunoblotting of plasma EPO; assay type: in vivo, C57BL6 mice; settings: end of experiment
Source text: as §2, §4, §5

[7] = system: RBC; test: Cell surface phosphatidylserine of RBC by Annexin V-APC binding (eryptosis); assay type: in vivo, C57BL6 mice; settings: PNx mice; Day 28
Source text: as §2
The ⅚^th partial nephrectomy with pole ligation (PNx) and sham surgery: PNx and sham surgery methods were performed as described previously. Briefly, the PNx surgery is divided into two separate procedures. […]
Assessment of cell surface Phosphatidylserine (PS) level of RBC by flow cytometry: The PS-specific binding of Annexin V was used to quantitate PS on RBC membrane for eryptosis. […] Fluorescence parameters were collected and analyzed using NovoExpress software v1.3. […] The threshold value was determined in preliminary studies based on analysis of the negative and positive controls. […]

[8] = Iron homeostasis (plasma iron, TIBC, UIBC, iron saturation rate); assay type: in vivo, C57BL6 mice; settings: end of experiment; comparison amongst groups
Source text: as §2
(§6) The ⅚^th partial nephrectomy with pole ligation (PNx) and sham surgery: PNx and sham surgery methods were performed as described previously. Briefly, the PNx surgery is divided into two separate procedures. The first surgery involves ligation of the left kidney of the upper and lower poles. […]
Assessment of iron homeostasis: Plasma iron concentration, TIBC (total iron-binding capacity), UIBC (unsaturated iron-binding capacity), and iron saturation rate (%) were assessed with Iron/TIBC Reagent Set (Cat #1750460) from Pointe Scientific (Canton, MI), according to the manufacturer's instruction.

[9] = system: RBC; test: RBC half-life by flow cytometry (biotinylated RBC, streptavidin-PE); assay type: in vivo, C57BL6 mice
Source text: as §2
as §6, with “poles. Seven days later, the second surgery involves the removal of the right kidney.” for “poles.”
Assessment of RBC half-life by flow cytometry: The RBC half-life was assessed by labeling RBC with biotin and detection with streptavidin-PE. […] Bodyweight for each mouse was measured to calculate the dose and volume. […]

[10] = system: ⅚th partial nephrectomy (PNx) mice; test: Hematocrit (Hct) in Sham and ⅚th partial nephrectomy (PNx) mice; assay type: in vivo, C57BL6 mice; settings: 25 mg/kg s.c. weekly, three doses
Source text: as §2, §3

[11] = system: VEGFA; settings: human tumor cell lines; cited from earlier work

## pNaKtide: GRKKRRQRRRPPQSATWLALSRIAGLCNRAVFQ; TAT cell penetrating peptide of SEQ ID NO: 2 fused to the NaKtide sequence; cell membrane permeable (TAT NaKtide Fusion Polypeptide)
[1]
  PNx-induced increase in plasma BUN: did not ameliorate PNx-induced increase in BUN
[2]
  PNx-induced increase in plasma creatinine level: did not significantly reduce PNx-induced increase in creatinine level
[3]; PNx mice
  Reticulocyte count (normalized with hematocrit) in PNx group: significantly reduces reticulocyte count
[3]; Sham mice
  Reticulocyte count (normalized with hematocrit) in Sham group: did not significant affect reticulocyte count
[4]
  PNx-induced protein carbonylation of plasma samples: reduces PNx-induced protein carbonylation nearly back to normal level
[5]; PNx, background
  PNx-induced anemia (earlier studies): restored
[5]; systemic administration
  Plasma BUN and creatinine in the setting of PNx (previous observations): neither systemic administration of pNaKtide nor lentiviral specific delivery of NaKtide to adipocytes resulted in substantial changes in plasma BUN and creatinine
[6]; PNx mice
  Plasma EPO level, treated PNx groups vs Sham group: significantly higher compared with the Sham group
[6]; Sham mice
  Plasma EPO level, Sham+pNaKtide vs Sham: similar
[7]
  PNx-induced increase in Annexin V binding (PS exposure at the cell surface, eryptosis): blocked
[8]
  Iron homeostasis: plasma iron level, TIBC, UIBC and iron saturation rate: did not significantly change iron homeostasis
[9]; PNx mice, untreated PNx group 19 days, sham 34 days
  RBC half-life, treated PNx groups: 35 days and 34 days
[9]; Sham mice, untreated sham group 34 days
  RBC half-life, Sham+pNaKtide group: 33 days and 32 days
[10]; PNx mice, Day 14 and 28, 25 mg/kg
  Hematocrit (Hct), PNx-induced decrease: corrected by pNaKtide administration; also recorded: ameliorated the anemia
[10]; Sham mice
  Hematocrit values in sham animals: did not change hematocrit values
[11]
  Expression of VEGFA: reduced the expression of VEGFA
